Measurements: article PMC12743511, “HSD17β11 regulates PLIN5-ATGL mediated lipolysis, but not hepatic lipid metabolism in mice” (Journal of Lipid Research, 2025)
Results are given in words; binding and its absence hold for the method and conditions named. Binding seen in cells or lysates may run through a third protein. Some results given as binding are weak or reduced against the parent protein; the word gives no strength. Tags and fused reporters may be left off the sequences shown.

Molecular target: T1, ATGL-CFP (adipose triglyceride lipase fused to CFP) (UniProt Q96AD5)
T1 sequence: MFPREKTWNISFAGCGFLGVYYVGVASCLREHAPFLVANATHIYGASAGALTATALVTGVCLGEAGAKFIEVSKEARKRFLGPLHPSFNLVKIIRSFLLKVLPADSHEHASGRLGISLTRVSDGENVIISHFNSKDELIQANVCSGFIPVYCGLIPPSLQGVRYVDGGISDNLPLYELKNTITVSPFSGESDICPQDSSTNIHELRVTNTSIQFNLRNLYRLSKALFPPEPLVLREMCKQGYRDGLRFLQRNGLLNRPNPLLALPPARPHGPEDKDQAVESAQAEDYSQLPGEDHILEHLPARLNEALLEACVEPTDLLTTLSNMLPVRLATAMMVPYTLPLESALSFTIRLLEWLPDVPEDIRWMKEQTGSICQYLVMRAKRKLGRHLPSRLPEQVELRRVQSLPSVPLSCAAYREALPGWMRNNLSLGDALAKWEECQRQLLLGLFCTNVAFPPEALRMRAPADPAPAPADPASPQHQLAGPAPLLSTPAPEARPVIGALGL
Experiment: FRET or BRET; FLIM-FRET with phasor analysis in live transfected cells, CFP donor and YFP acceptor, 37°C, 5% CO2; basal and forskolin (PKA) stimulated; ATGL-CFP with PLIN5-YFP in WT and HSD^KO cells; read-out FRET ratio (pixels with FRET / pixels without)

binding: binds
B1: PLIN5-YFP (perilipin 5 fused to YFP) (protein, UniProt Q00G26 1-463)
chain: MSEEEAAQIPRSSVWEQDQQNVVQRVVALPLVRATCTAVCDVYSAAKDRHPLLGSACRLAENCVCGLTTRALDHAQPLLEHLQPQLATMNSLACRGLDKLEEKLPFLQQPSETVVTSAKDVVASSVTGVVDLARRGRRWSVELKRSVSHAVDVVLEKSEELVDHFLPMTEEELAALAAEAEGPEVGSVEDQRRQQGYFVRLGSLSARIRHLAYEHSVGKLRQSKHRAQDTLAQLQETLELIDHMQCGVTPTAPACPGKVHELWGEWGQRPPESRRRSQAELETLVLSRSLTQELQGTVEALESSVRGLPAGAQEKVAEVRRSVDALQTAFADARCFRDVPAAALAEGRGRVAHAHACVDELLELVVQAVPLPWLVGPFAPILVERPEPLPDLADLVDEVIGGPDPRWAHLDWPAQQRAWEAEHRDGSGNGDGDRMGVAGDICEQEPETPSCPVKHTLMPELDF
